Reference: patent publication US8333987B2 (priority 2008, dated 2012)
The name of at least one read-out is uncertain.

Assay: Permeability of cyclocreatine
Assay type: physicochemical
Details: physiologically relevant zwitterion salt

NC1=NCCN1CC(=O)O [cyclocreatine]
permeability: poorly permeable
